# Results taken from the supplement of paper PMC11006884.
# By UniProt entry, the sequences of proteins in these tests, tags left out. Where a name states a change or a piece, a line headed by the entry shows the natural chain unless it says otherwise.
# UniProt Q7Z309: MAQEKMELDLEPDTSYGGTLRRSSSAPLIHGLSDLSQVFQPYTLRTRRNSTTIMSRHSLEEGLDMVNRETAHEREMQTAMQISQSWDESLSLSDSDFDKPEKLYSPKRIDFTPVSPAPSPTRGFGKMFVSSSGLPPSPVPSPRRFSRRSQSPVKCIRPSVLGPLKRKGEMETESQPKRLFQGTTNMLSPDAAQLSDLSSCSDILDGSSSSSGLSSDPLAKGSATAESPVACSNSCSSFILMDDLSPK
# UniProt Q8IV48: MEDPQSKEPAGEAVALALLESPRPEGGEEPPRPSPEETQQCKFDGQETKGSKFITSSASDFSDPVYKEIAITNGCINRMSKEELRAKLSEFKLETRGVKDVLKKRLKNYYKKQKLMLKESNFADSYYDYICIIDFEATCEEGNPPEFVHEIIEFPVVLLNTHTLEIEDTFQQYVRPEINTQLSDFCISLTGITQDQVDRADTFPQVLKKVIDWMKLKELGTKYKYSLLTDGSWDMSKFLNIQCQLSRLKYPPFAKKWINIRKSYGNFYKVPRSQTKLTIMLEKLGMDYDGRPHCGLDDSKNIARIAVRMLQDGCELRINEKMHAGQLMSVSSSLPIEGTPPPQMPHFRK
# UniProt Q8IY81: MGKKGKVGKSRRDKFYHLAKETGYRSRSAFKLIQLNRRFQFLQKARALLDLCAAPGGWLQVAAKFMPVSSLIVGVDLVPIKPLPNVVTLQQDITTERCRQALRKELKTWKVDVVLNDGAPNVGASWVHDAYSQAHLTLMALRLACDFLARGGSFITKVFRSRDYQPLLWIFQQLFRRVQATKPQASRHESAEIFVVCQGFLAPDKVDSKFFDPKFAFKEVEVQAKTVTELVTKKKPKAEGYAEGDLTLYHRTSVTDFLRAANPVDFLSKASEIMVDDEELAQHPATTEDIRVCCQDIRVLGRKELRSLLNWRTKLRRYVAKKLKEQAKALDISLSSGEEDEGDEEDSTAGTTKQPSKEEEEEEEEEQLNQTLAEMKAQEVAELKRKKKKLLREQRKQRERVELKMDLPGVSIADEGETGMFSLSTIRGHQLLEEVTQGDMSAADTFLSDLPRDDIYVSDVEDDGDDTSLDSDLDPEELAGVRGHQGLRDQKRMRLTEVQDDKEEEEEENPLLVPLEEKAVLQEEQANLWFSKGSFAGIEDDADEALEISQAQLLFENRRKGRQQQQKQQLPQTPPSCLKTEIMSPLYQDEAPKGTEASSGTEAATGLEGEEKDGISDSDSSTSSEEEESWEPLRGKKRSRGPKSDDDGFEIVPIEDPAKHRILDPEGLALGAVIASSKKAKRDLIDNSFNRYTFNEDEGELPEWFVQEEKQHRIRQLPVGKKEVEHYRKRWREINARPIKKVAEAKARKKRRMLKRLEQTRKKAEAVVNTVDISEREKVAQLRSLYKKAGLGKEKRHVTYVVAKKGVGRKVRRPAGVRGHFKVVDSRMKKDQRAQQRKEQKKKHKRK
# UniProt Q8IU81: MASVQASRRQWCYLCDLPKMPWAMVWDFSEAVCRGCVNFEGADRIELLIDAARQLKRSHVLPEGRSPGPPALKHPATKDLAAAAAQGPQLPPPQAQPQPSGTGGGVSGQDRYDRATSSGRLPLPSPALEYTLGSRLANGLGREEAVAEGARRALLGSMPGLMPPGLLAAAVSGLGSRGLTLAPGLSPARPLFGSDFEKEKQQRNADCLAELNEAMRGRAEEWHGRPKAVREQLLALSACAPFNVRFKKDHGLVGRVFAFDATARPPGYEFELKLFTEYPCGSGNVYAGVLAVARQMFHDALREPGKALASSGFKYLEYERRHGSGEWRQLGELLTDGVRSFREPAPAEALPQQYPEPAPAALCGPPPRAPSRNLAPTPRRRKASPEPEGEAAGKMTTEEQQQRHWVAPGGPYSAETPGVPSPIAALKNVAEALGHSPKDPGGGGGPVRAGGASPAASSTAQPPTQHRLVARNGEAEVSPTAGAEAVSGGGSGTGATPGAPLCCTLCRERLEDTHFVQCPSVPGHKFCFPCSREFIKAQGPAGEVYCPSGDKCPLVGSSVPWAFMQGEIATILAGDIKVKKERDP
# UniProt Q8IWS0: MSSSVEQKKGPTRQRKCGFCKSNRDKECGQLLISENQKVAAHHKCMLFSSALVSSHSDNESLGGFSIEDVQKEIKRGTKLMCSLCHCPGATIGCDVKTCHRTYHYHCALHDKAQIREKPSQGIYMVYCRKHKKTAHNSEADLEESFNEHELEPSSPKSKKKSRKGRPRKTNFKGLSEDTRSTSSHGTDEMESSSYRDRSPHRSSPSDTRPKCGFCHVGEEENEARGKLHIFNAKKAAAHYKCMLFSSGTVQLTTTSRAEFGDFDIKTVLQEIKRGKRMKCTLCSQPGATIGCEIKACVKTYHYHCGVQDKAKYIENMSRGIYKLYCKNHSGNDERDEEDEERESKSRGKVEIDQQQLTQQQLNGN
# UniProt Q86W56: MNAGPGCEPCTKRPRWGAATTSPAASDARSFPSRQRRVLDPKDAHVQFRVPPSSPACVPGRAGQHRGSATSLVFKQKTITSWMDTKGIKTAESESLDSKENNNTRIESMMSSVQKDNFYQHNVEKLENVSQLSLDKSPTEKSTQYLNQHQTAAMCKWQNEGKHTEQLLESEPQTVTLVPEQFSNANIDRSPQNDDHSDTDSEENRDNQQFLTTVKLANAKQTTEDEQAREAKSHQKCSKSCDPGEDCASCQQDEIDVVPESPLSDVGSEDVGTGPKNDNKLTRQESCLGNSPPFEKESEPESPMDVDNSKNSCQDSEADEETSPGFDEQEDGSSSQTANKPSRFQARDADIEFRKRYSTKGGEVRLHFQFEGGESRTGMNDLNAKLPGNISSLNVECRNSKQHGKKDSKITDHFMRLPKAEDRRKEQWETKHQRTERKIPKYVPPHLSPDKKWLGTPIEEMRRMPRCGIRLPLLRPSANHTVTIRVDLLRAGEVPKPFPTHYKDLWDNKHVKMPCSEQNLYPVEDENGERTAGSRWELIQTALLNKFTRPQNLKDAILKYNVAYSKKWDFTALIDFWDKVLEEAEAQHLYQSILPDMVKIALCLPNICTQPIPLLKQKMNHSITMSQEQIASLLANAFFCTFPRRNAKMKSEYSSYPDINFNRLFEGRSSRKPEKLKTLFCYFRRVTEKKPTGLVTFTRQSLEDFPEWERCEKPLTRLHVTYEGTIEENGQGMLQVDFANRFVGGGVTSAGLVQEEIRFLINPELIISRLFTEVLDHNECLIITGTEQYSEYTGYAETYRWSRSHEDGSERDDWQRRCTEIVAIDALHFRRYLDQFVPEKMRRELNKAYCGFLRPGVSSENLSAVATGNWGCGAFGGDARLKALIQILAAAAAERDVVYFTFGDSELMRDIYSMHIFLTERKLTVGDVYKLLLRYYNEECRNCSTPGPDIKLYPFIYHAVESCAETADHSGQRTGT
# UniProt Q86UA6: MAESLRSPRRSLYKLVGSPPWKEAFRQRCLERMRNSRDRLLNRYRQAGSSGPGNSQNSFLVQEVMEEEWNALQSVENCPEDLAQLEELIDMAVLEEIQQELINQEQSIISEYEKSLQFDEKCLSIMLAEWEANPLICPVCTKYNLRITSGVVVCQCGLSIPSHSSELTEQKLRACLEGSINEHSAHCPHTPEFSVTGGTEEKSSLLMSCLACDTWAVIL
# UniProt Q7L2E3: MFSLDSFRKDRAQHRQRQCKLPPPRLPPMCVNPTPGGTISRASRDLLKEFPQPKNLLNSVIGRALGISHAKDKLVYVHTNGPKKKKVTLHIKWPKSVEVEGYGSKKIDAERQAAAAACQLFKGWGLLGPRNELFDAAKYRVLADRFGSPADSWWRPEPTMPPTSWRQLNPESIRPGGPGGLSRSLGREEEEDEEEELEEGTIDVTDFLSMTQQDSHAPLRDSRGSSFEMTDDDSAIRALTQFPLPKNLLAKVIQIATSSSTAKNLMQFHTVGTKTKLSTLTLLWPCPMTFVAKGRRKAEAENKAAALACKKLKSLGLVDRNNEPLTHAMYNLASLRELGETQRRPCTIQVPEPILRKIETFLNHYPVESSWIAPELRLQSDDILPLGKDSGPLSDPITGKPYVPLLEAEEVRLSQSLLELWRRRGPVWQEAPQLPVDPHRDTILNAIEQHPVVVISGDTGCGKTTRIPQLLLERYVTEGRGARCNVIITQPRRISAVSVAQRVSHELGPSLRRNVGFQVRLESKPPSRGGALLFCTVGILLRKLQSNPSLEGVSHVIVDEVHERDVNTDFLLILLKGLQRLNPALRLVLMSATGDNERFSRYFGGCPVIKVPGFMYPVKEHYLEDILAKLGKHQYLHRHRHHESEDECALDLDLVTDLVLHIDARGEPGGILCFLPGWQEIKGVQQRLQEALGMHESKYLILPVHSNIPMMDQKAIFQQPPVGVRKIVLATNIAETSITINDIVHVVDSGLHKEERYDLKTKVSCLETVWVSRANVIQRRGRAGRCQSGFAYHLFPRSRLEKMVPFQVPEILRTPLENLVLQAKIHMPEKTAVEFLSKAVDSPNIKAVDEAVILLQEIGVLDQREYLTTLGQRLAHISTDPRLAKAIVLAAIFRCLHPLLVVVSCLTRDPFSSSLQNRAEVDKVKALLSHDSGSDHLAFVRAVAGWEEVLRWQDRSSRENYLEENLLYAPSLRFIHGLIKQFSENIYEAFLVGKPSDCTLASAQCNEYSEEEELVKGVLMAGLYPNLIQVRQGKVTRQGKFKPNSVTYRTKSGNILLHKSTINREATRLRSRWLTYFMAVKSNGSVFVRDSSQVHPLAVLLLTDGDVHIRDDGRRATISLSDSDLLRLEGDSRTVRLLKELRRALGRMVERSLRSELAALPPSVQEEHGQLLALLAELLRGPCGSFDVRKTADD
# UniProt Q8IWJ2: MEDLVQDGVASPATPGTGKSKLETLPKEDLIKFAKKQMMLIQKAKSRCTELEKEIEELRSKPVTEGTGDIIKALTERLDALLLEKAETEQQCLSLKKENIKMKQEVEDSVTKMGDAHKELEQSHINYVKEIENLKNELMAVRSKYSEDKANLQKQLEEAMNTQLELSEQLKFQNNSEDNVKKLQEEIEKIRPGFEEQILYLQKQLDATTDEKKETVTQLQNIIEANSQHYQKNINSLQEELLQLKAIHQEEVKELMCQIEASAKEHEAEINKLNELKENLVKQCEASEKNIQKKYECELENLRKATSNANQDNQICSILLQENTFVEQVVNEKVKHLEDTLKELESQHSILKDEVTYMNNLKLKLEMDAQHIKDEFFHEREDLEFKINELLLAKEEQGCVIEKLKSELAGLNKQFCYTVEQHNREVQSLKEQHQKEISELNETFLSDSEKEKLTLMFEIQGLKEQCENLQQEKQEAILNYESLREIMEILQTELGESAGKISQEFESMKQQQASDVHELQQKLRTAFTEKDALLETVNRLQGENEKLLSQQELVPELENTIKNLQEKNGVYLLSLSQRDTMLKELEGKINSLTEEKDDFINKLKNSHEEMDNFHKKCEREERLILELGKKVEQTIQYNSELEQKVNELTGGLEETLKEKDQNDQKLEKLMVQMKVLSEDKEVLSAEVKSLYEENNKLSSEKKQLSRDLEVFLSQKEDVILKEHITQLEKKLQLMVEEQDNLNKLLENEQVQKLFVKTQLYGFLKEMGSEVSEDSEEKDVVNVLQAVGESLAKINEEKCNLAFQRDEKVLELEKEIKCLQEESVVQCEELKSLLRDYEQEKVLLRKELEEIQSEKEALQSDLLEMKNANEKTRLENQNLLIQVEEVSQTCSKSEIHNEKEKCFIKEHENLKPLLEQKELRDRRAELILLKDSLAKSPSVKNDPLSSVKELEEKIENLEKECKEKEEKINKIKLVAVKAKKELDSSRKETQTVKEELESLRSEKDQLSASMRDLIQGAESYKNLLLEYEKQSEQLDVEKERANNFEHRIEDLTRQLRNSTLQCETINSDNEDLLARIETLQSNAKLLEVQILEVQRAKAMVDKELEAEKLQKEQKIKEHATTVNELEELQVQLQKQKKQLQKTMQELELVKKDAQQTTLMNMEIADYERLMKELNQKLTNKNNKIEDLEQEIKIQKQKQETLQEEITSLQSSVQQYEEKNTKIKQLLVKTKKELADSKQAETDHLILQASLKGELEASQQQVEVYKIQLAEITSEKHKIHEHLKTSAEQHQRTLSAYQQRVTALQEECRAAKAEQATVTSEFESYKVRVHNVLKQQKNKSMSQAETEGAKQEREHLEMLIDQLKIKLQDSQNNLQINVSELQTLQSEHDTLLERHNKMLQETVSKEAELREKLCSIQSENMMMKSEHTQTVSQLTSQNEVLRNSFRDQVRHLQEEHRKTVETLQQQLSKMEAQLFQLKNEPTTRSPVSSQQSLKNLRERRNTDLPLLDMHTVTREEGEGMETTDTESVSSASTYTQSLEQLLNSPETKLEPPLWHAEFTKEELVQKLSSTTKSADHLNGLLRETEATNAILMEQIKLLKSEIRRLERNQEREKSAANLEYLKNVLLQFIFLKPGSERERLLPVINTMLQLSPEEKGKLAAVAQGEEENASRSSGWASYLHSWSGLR
# Shown are results outside the selection of targets with a hit, which stands elsewhere. Single values of this set are uncertain. The entries are a selection whose mix differs from that of the whole data set.
# Compound: COC(=O)/C=C/c1ccccc1 [methyl cinnamate]
# Experiment: log2 ratio of iodoacetamide-alkyne labeling of the cysteine site, DMSO over compound (competition); higher = stronger covalent engagement of the cysteine by the compound, active = 1 or more
# Conditions: 500 µM; treatment time 1 h; system: HEK293T cell lysate
# Procedure, shortened: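 HEK293T lysate (2 mg/mL) was treated with DMSO or electrophile (500 µM, 1 h, ambient temperature), then iodoacetamide alkyne (1 h), clicked to sCIP-TMT reagents, pooled, trypsin-digested overnight at 37 °C, streptavidin-enriched and acid-eluted. Peptides were run on Orbitrap Eclipse LC-MS/MS with FAIMS and quantified in FragPipe. The log2 competition ratio per cysteine is mean control-channel over mean compound-channel reporter intensity. Duplicate channels and three replicates were used, and cysteines quantified in only one replicate were excluded.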
row,Target,log2 ratio of iodoacetamide-alkyne labeling
1,UniProt Q86Y56_C773,inactive: 0.0217
2,FAM122B C155 (UniProt Q7Z309),inactive: 0.348
3,ERI1 C75 (UniProt Q8IV48),inactive: 0.263
4,UniProt Q8IVS2_C62,inactive: 0.172
5,FTSJ3 C52 (UniProt Q8IY81),inactive: 0.0113
6,LUZP1 C969 (UniProt Q86V48),inactive: 0.0823
7,UniProt Q86Y56_C92,inactive: 0.144
8,UniProt Q7LBC6_C1451,inactive: 0.297
9,UniProt Q7LBC6_C569,inactive: 0.458
10,RBBP6 C44 (UniProt Q7Z6E9),inactive: 0.279
11,HUWE1 C689 (UniProt Q7Z6Z7),inactive: -0.181
12,PHLDB2 C385 (UniProt Q86SQ0),inactive: 0.447
13,PHACTR4 C328 (UniProt Q8IZ21),inactive: 0.184
14,UniProt Q7L2H7_C134,inactive: -0.236
15,SND1 C152 (UniProt Q7KZF4),inactive: 0.327
16,UniProt Q86YS7_C831,inactive: 0.061
17,IRF2BP1 C280 (UniProt Q8IU81),inactive: 0.14
18,WDR75 C397 (UniProt Q8IWA0),inactive: 0.178
19,UniProt Q7Z7A3_C287,inactive: -0.219

# Two records drawn at random from those above:
row,Target,log2 ratio of iodoacetamide-alkyne labeling
4,UniProt Q8IVS2_C62,inactive: 0.172
10,RBBP6 C44 (UniProt Q7Z6E9),inactive: 0.279

# Going on with the list:

row,Target,log2 ratio of iodoacetamide-alkyne labeling
1,VPS13B C2907 (UniProt Q7Z7G8),inactive: 0.559
2,HUWE1 C1278 (UniProt Q7Z6Z7),inactive: -0.0378
3,PHF6 C128 (UniProt Q8IWS0),inactive: 0.0252
4,FTSJ3 C577 (UniProt Q8IY81),inactive: 0.082
5,UniProt Q7Z2T5_C265,inactive: 0.168
6,UniProt Q7Z2T5_C239,inactive: 0.338
7,SH3RF1 C658 (UniProt Q7Z6J0),inactive: 0.00212
8,PARG C515 (UniProt Q86W56),inactive: 0.342
9,DCP2 C391 (UniProt Q8IU60),inactive: 0.507
10,RPUSD2 C246 (UniProt Q8IZ73),inactive: -0.234
11,RPAIN C175 (UniProt Q86UA6),inactive: 0.0438
12,ZC3HC1 C429 (UniProt Q86WB0),inactive: 0.431
13,DHX30 C673 (UniProt Q7L2E3),inactive: 0.0349
14,NCAPG2 C537 (UniProt Q86XI2),inactive: 0.11
15,USP48 C658 (UniProt Q86UV5),inactive: -0.0324
16,GCC2 C297 (UniProt Q8IWJ2),inactive: 0.295
17,MAP7D3 C505 (UniProt Q8IWC1),inactive: 0.288
18,PHF6 C45 (UniProt Q8IWS0),inactive: -0.0475
